Values of other authors as cited in patent US6642219B1, “Progestogen-antiprogestogen regimens” (Akzo Nobel N.V., priority 1997, dated 2003).
At least one compound was matched to its structure with a doubt left.

Test system: progestogenic activity
Details: based on practically applied doses

C#C[C@]1(O)CC[C@H]2[C@@H]3CCC4=CC(=O)CC[C@@H]4[C@H]3CC[C@@]21CC [levonorgestrel]
progestogenic activity, compared among each other: relatively equipotent
